# Data from PubChem BioAssay AID651702 (NMMLSC, 2012).
# Among all 360,000 compounds or so, about 2,400 (0.67%) were called active. This list was built around the results that the source calls inconclusive (neither active nor inactive); the mix of calls is not that of the screen.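 The calls were made as follows: active = inhibition above about 55% (limit read from the data); inconclusive = no clear call, values can overlap the other calls; inactive = the rest.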
# Test: LAMP-1 surface exposure blockers, TALL-104 cells – cell-based, flow cytometry, MLPCN library, primary screen (AID 651702)
# Settings: TALL-104 LAMP-1 surface exposure, cells stimulated with thapsigargin and PMA; at 10 µM, hits give high values
row,SMILES,inhibition
1,CN(C)CCN(C(=O)/C=C/c1cccs1)c1nc2c(F)cc(F)cc2s1,active: 64.8%
2,CCOC(=O)c1ccc(N2CCN(C(=O)c3ccccc3)CC2)c(NC(=O)c2ccco2)c1,inactive: 8.3%
3,Cc1ccc(S(=O)(=O)N2CCC(C(=O)N[C@@H](C)C(=O)Nc3ccc(F)cc3)CC2)cc1,inconclusive
4,Oc1cc(Br)ccc1C=Nc1ccc(N2CCCCC2)cc1,active: 64.8%
5,O=[N+]([O-])c1ccc(NC(=S)NCCc2ccc(Cl)cc2)cc1,inactive: 6.8%
6,Cc1ccc(C2/C(=C(\O)c3ccc4c(c3)OCCO4)C(=O)C(=O)N2CC2CCCO2)cc1 (stereo unspecified),inconclusive
7,O=C(Nc1ccc(Cl)cc1)[C@@H]1[C@@H]2C(=O)N(c3cccc(F)c3)C(=O)[C@@H]2[C@H]2C=CC=NN21,inconclusive
8,CCCOC(=O)c1ccc(NC(=O)c2cc(Cl)ccc2OC)cc1,inconclusive
9,Cc1cc(C)c2c(n1)nn1c(NCCN3CCOCC3)cc(C)nc21,inactive: -2.3%
10,CCn1c(COc2ccc(Cl)cc2)nnc1SCC(=O)Nc1ccc2c(c1)OCO2,inconclusive
11,CCOC(=O)/C=C/c1cnn(-c2ccccc2)c1,inconclusive
12,Cc1cc(=O)n2nc(N3CCC(C(=O)NCC(C)c4ccccc4)CC3)sc2n1 (stereo unspecified),inconclusive
13,CC1=NN(C(=O)c2cc(C)nn2C)C(O)(C(F)(F)F)C1 (stereo unspecified),inconclusive
14,COc1cccc2cc(C(=O)NCCc3ccccc3)c(=O)oc12,inconclusive
15,COc1cccc(-c2cc3nc(Nc4ccc(OC)c(OC)c4)n(C)c(=O)c3s2)c1,inconclusive
16,COc1ccc(CNC(=O)CNC(=O)c2ccc(C(C)(C)C)cc2)cc1OC,inconclusive
17,Cc1ccc(SCc2c(C(=O)N/N=C/c3ccccc3)nnn2-c2nonc2N)cc1,active: 84.6%
18,COc1ccc(-n2nc(C(=O)NCC(=O)N3CCN(c4ccccc4)CC3)c3ccccc3c2=O)c(OC)c1,inconclusive
19,COCCNC(=O)c1cn(CCOC)c(=O)c2c1c1ccccc1n2C,inconclusive
20,NC(=O)c1ccc(-n2nnnc2SCC(=O)Nc2ccc(F)cc2)cc1,inconclusive
21,O=C(NCC1CCCO1)c1ccc(NC(=O)c2cc(F)c(F)cc2Cl)cc1 (stereo unspecified),inconclusive

row,SMILES,inhibition
1,CCCc1cc(=O)n2c(nc3ccccc32)[nH]1,inconclusive
2,O=C(O)CSc1nnc(-c2ccncc2)n1-c1ccc(Cl)cc1,inactive: 3.1%
3,COc1ccc(N(CC(=O)NCCSCc2ccc(Cl)cc2)S(C)(=O)=O)cc1Cl,active: 66.8%
4,O=C(Cn1c(CO)nc2ccccc21)NCc1ccc2c(c1)OCO2,inactive: 4.7%
5,O=C(O)c1ccccc1Oc1ccc(Oc2ccccc2)cc1,inactive: -8.7%
6,CCCCn1c(N2CCC(Cc3ccccc3)CC2)nc2c1c(=O)[nH]c(=O)n2C,active: 88.4%
7,O=S(=O)(Nc1ccc2ccccc2n1)c1ccc2c(c1)CCO2,inactive: -2.4%
8,CC(Nc1ccc(F)cc1)=[N+](C)CCNS(=O)(=O)c1ccc(Cl)cc1,inconclusive
9,C/C(=N\Nc1ccc([N+](=O)[O-])cc1)c1ccc(-n2nncc2C)cc1,inactive: -2.4%
10,COc1ccc(COc2ccc3c(C)cc(=O)oc3c2)cc1,active: 75%
11,COc1cc(C(=O)OCC(=O)NC(=O)c2cccn2C)ccc1OC(F)F,inconclusive
12,CCOc1ccc(CN2CCC(n3nccc3NC(=O)CCCc3ccccc3)CC2)cc1,inconclusive
13,CCN(CC)CCN1C(=O)c2cccc3cc(N)cc(c23)C1=O,inconclusive
14,O=C(NN1CCCCC1)c1cccc(COc2ccc(Cl)cc2)c1,inconclusive
15,COc1cc(/C=C2\SC(=S)N(CCC(=O)Nc3ccc(O)cc3)C2=O)cc(OC)c1OC,inactive: -0.1%
16,COc1ccc(CNC(=O)c2c(O)c3cccc4c3n(c2=O)CCC4)cc1,inactive: 7.3%
17,O=[N+]([O-])c1cccc2nc(-c3ccccc3)c(-c3ccccc3)nc12,inconclusive
18,Cc1cc(C)cc(OCc2nnc(SCC(=O)Nc3ccccc3)o2)c1,inconclusive
19,Cc1ccc(C)c(C(=O)N2CCN(c3ncccn3)CC2)c1,inconclusive
20,O=C(N/N=C\c1cccc(F)c1)c1ccc(Cn2cc(Br)c([N+](=O)[O-])n2)o1,inconclusive
21,CC(C)[C@H](NC(=O)N1c2ccccc2NC(=O)[C@@H]1C(C)C)C(=O)N[C@@H](Cc1ccccc1)C(=O)O,inactive: 2.7%

# 3 of the compounds above, with tabs:
row	SMILES	inhibition
1	CCCc1cc(=O)n2c(nc3ccccc32)[nH]1	inconclusive
2	O=C(O)CSc1nnc(-c2ccncc2)n1-c1ccc(Cl)cc1	inactive: 3.1%
3	COc1ccc(N(CC(=O)NCCSCc2ccc(Cl)cc2)S(C)(=O)=O)cc1Cl	active: 66.8%

# Next part.

row,SMILES,inhibition
1,O=c1[nH]c(SCCOc2cccc3ccccc23)nc2ccccc12,inactive: -4.2%
2,COc1ccc(F)cc1CN1CCN(c2ncnc3scc(-c4ccccc4)c23)CC1,active: 70%
3,CCC(C)(C)NC(=O)C(c1ccc(OC)cc1)N(C(=O)CCC(=O)Nc1cc(C)on1)c1ccc(OC)cc1OC (stereo unspecified),inconclusive
4,CN(Cc1ccccc1)C1=CC(=[N+]2CCCCC2)CC(C)(C)C1,inconclusive
5,COc1cccc(-n2nnnc2S(C)(=O)=O)c1,active: 80%
6,CN(C)c1ccc2c(c1)OC(N)=C(C#N)C2c1cccc(F)c1 (stereo unspecified),inactive: 6.6%
7,N/C(=N\OC(=O)CCCc1ccccc1)c1cccnc1,inconclusive
8,Cc1oc(=O)c(NC(=O)c2cccc(Cl)c2)cc1C(=O)c1ccccc1,active: 96.9%
9,CCSc1nc2[nH]ncc2c(=O)[nH]1,inconclusive
10,CCOc1cccc(CN2CCCC(N3CCN(c4cccc(Cl)c4)CC3)C2)c1O (stereo unspecified),active: 65.9%
11,CC(C)(C)c1nn(-c2ccccc2)c2[nH]c(=O)c(CNc3ccc4c(c3)OCCO4)cc12,inconclusive
12,CC(=NNc1nc2ccccc2s1)c1ncccn1,active: 102%
13,O=C(CSC1=NC(=O)C(c2ccccc2)C(=O)N1)Nc1cccc(Cl)c1 (stereo unspecified),inconclusive
14,NS(=O)(=O)c1cccnc1Nc1cccc(C(F)(F)F)c1,inconclusive
15,Cc1ccc2nsnc2c1S(=O)(=O)NCc1cccnc1,inconclusive
16,CCOC(=O)Cc1nnc(NC(=O)CSc2ccccc2)s1,inconclusive
17,C=CCOc1c(CNc2ccc3[nH]c(=O)[nH]c3c2)cccc1OC,inactive: 4.8%
18,COCCN1Cc2cccc(C(=O)NC3CCCCCC3)c2C1=O,inconclusive
19,Cc1ccc(C(=O)N/C(=C\c2ccc(-c3ccc(Br)cc3)o2)C(=O)NCCCN(C)C)cc1,active: 75.1%
